In PubChem BioAssay AID504444 (National Center for Advancing Translational Sciences (NCATS), 2011):
Hit rate of the full screen: of about 360,000 compounds, about 7,500 (2.1%) were called active. This list was built around the results that the source calls inconclusive (neither active nor inactive); the mix of calls is not that of the screen. The call rests on the fitted dose curve; in most records, active means well fitted inhibition curve with a large enough effect; inconclusive means small, poorly fitted or top-dose-only effect, or effect the other way; inactive means flat fitted curve, though single readings scatter. Potencies beside an inconclusive call are fits to weak or partial responses and may not hold up.

Test: Nrf2 qHTS screen for inhibitors; further: nearly all actives have a fitted effect of over 60% in size
Details: A549 ARE-Fluc reporter, luciferase luminescence, 18-24 h; series mostly up to 46 µM
Outline: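 Cells were seeded and rested 2 h, then exposed to compounds for 18-24 h. CellTiter-Fluor was read first as a viability measure. BugLite was added 15 min before the final luminescent read of ARE-luciferase activity in A549 cells.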
Potency means the concentration at half of the fitted maximal effect.

| Compound | Potency |
| --- | --- |
| O=C(Nc1ccccc1C(=O)Nc1ccccn1)c1cc(F)c(F)cc1Cl | inactive |
| CC1CCCN(CCOc2ccc3ccccc3c2Br)C1 (stereo not given) | inconclusive: 29.1 µM [activator, single point] |
| Cc1ccc(N=Cc2sc(O)c3ccccc23)cc1 | inconclusive: 18.4 µM [activator, partial curve] |
| O=C1NC(c2ccccc2)=C(c2ccc3ccccc3n2)C(c2ccc(F)cc2)N1 (stereo not given) | inconclusive: 20.6 µM [falling, single point] |
| Cc1oc2c(c1C(=O)Nc1ccc(Cl)cc1F)C1=NCCN1C=N2 | inconclusive: 29.1 µM [activator, single point] |
| COc1ccc(OCC#CCN2CC(C)OC(C)C2)cc1 (stereo not given) | inconclusive: 4.11 µM [activator, single point] |
| O=C(COC(=O)c1nc(Cl)ccc1Cl)Nc1ccc(Cl)cn1 | inactive |
| O=[N+]([O-])c1ccc(S(=O)(=O)Nc2cccc(-c3ccc(N4CCOCC4)nn3)c2)cc1 | inconclusive: 23.1 µM [falling, partial curve, poor fit] |
| CC1CN(c2ccc(C(F)(F)F)cc2[N+](=O)[O-])CCN1S(C)(=O)=O (stereo not given) | inconclusive: 29.1 µM [falling, single point] |
| CCN(c1ccccc1)S(=O)(=O)c1ccc(Cl)nc1 | inactive |
| Cc1nc2sccn2c(=O)c1S(=O)(=O)NCc1ccccc1 | inconclusive: 1.46 µM [activator, full curve] |
| COc1ccc(Nc2nnc(-c3ccc(C)c(S(=O)(=O)N4CCN(C)CC4)c3)c3ccccc23)cc1 | inactive |
| Cc1ccc(C2CC(=O)Nc3c2ccc2ccccc32)cc1[N+](=O)[O-] (stereo not given) | inconclusive: 23.1 µM [falling, single point] |
| COc1ccc2sc(NC(=O)c3ccco3)nc2c1 | inconclusive: 1.16 µM [activator, partial curve] |
| Cc1ccc(C)c(N2CCN(C(=O)c3ccc4c(c3)c(C)c(C)n4C)CC2)c1 | inconclusive: 29.1 µM [falling, single point] |
| O=C(Cn1nnc(-c2ccccc2)n1)NCc1ccccc1 | inconclusive: 1.84 µM [falling, partial curve, poor fit] |
| CCOC(=O)c1ccc(-n2cnc3c(c2=N)C(c2cccc(OC)c2)c2c(ccc4ccccc24)O3)cc1 (stereo not given) | inactive |
| CCOc1ccccc1C1CC(=O)NC(C)=C1C(=O)OCc1ccc(C)cc1 (stereo not given) | inconclusive: 29.1 µM [falling, single point] |
| Cn1cccc1C(=O)NC(=O)CSc1nnc(C2CC2)n1-c1ccccc1 | inconclusive: 23.1 µM [activator, single point] |
| CCOC(=O)c1oc2ccccc2c1NC(=O)CN1CCN(C)CC1 | inactive |
| N#Cc1ccccc1OCC(=O)NNC(=O)CCC1CCCC1 | inconclusive: 7.31 µM [activator, partial curve, poor fit] |
| Cc1nc2cc(NCc3cccs3)ccc2n1C | inconclusive: 4.61 µM [activator, partial curve] |
| Cc1ccccc1NC(=S)NCCC(c1ccccc1)c1ccccc1 | inactive |
| O=C1NNC(=O)C1c1ccccc1 | inactive |

| Compound | Potency |
| --- | --- |
| CC(C)(C)c1ccc(OCC(O)CSc2ncn[nH]2)cc1 (stereo not given) | active: 14.6 µM |
| O=C(NC1CCCCC1)N1CCCC(c2nc(-c3ccc(S(=O)(=O)N4CCCC4)cc3)no2)C1 (stereo not given) | inactive |
| CCOc1ccc(N(Cc2cc3cc(C)ccc3[nH]c2=O)C(=O)c2cccc(Cl)c2)cc1 | inactive |
| Cc1ccc(S(=O)(=O)c2nc(S(C)(=O)=O)sc2N2CCN(C)CC2)cc1 | inconclusive: 23.1 µM [falling, single point] |
| O=C(Nc1ccc(Cl)c(S(=O)(=O)N2CCOCC2)c1)c1ccc(OCC2CCCO2)cc1 (stereo not given) | inconclusive: 20.6 µM [falling, single point] |
| COc1ccc(S(=O)(=O)N2CCCC(C(=O)NC3CCCCC3)C2)cc1 (stereo not given) | inconclusive: 16.4 µM [falling, partial curve, poor fit] |
| CCN1C(=O)[C@@H]2[C@@H](c3ccc(-c4ccc(Cl)c(Cl)c4)c(OC)c3)N3CCC[C@@]3(C(=O)OC)[C@@H]2C1=O | inconclusive: 23.1 µM [falling, single point] |
| COCCn1cc(C(=O)N2CCC(C)CC2)c2c3ccccc3n(C)c2c1=O | inactive |
| CCOC(=O)c1ccc(-n2c(CCC(=O)O)ccc2-c2cccs2)cc1 | inconclusive: 20.6 µM [falling, single point] |
| CCNC(=S)N(Cc1ccco1)Cc1cc2cc3c(cc2[nH]c1=O)OCCO3 | inactive |
| CCCN(Cc1cccs1)C(=O)Nc1ccccc1C | inactive |
| O=C(NC1CCCc2c1cnn2-c1ccc(F)cc1F)c1ccccn1 (stereo not given) | inconclusive: 29.1 µM [falling, single point] |
| CCCOc1ccc(/C=C/C(=O)OCC(=O)N(C)c2c(N)n(Cc3ccccc3)c(=O)[nH]c2=O)cc1OCC | inactive |
| O=c1/c(=C\c2ccc3c(c2)OCO3)sc2n1CCCN=2 | inconclusive: 7.31 µM [activator, partial curve] |
| Cc1ccccc1-c1nc(S(=O)(=O)c2ccc(Br)cc2)c(NCc2cccnc2)o1 | inconclusive: 25.9 µM [falling, single point] |
| O=C(Nc1cccnc1)c1ccc(COc2ccccc2Br)cc1 | active: 13 µM |
| CCOc1ccc(NC(=O)NC(C)c2c(-n3cccc3)sc(C)c2C)cc1 (stereo not given) | active: 20.6 µM |
| O=C(Cn1nc(N2CCN(c3ccccc3)CC2)ccc1=O)NCc1cccc(Cl)c1 | inconclusive: 1.46 µM [falling, partial curve, poor fit] |
| Cc1cccc(N2CCN(C(=O)Cc3cn(C)c4ccccc34)CC2)c1C | inconclusive: 32.6 µM [falling, single point] |
| COc1ccc(-c2cc3nc(-c4ccccc4)cc(N4CCCC(O)C4)n3n2)cc1 (stereo not given) | active: 13 µM |
| CCn1c2ccccc2c2nnc(N3CCN(c4cccc(C)c4C)CC3)nc21 | inconclusive: 20.6 µM [falling, partial curve] |
| CCN(CC)c1ccc(NC(=O)Nc2cccc(C(C)=O)c2)cc1 | active: 14.6 µM |
| CCOC(=O)c1c(NC(=O)c2nn(CC)cc2Br)sc2c1CCCCC2 | inconclusive: 29.1 µM [falling, single point] |
| O=C(NCCCN1CCOCC1)c1ccc2c(c1)N(Cc1ccccc1)C(=O)c1ccccc1S2 | inconclusive: 32.6 µM [falling, single point] |

Look-ups from the entries so far:
Potency, O=C(Nc1cccnc1)c1ccc(COc2ccccc2Br)cc1 is entered as active: 13 µM
Potency, CCOc1ccc(NC(=O)NC(C)c2c(-n3cccc3)sc(C)c2C)cc1 (stereo not given) is entered as active: 20.6 µM
Potency, O=C(NC1CCCCC1)N1CCCC(c2nc(-c3ccc(S(=O)(=O)N4CCCC4)cc3)no2)C1 (stereo not given) is entered as inactive
Potency, O=C(Nc1ccc(Cl)c(S(=O)(=O)N2CCOCC2)c1)c1ccc(OCC2CCCO2)cc1 (stereo not given) is entered as inconclusive: 20.6 µM [falling, single point]

Further structures follow.

| Compound | Potency |
| --- | --- |
| CCCN1Cc2cccc(C(=O)Nc3ccc4c(c3)OCO4)c2C1=O | inconclusive: 11.6 µM [falling, partial curve, poor fit] |
| CCC(C)(C)NC(=O)C(c1ccc(C)cc1)N(Cc1cccs1)C(=O)c1ccc2c(c1)OCCO2 (stereo not given) | inconclusive: 16.4 µM [falling, single point] |
| Cc1ccc(-c2nnc(SCC(=O)N/N=C/c3ccccc3C(=O)O)n2-c2ccc(C)cc2)cc1 | inactive |
| COc1ccccc1NC(=O)Nc1nc(CC(=O)Nc2ccc(N(C)C)cc2)cs1 | inconclusive: 6.51 µM [activator, single point] |
| Cc1cc(Oc2nc3ccccn3c(=O)c2/C=C(\C#N)C(=O)NC2CCS(=O)(=O)C2)ccc1Cl (stereo not given) | inactive |
| O=C(COc1c(CO)cc(Br)cc1CO)NC1CCCc2ccccc21 (stereo not given) | inconclusive: 9.2 µM [falling, partial curve] |
| CC1(C)O[C@@H]2CC3C4C[C@H](F)C5=CC(=O)C=CC5(C)C4C(O)CC3(C)[C@]2(C(=O)CO)O1 (stereo not given in full) | active: 0.0046 µM |
| O=c1oc2ccccc2n1CCn1c2ccccc2c2nc3ccccc3nc21 | inconclusive: 29.1 µM [falling, single point] |
| CCCC[C@H]1CCCO[C@@](C(=O)NCCN2CCOCC2)(C(F)(F)F)C1 | inactive |
| COc1ccc(C2/C=C\CN(C(=O)C3CCCC3)CC(=O)N2Cc2ccc(F)cc2)cc1 (stereo not given) | inactive |
| O=C(Nc1ncccc1Cl)C1COc2ccccc2O1 (stereo not given) | inconclusive: 29.1 µM [activator, single point] |
| COc1ccc(C(c2nnnn2Cc2ccccc2)N2CCN(c3nc4ccccc4s3)CC2)cc1OC (stereo not given) | inconclusive: 14.6 µM [falling, partial curve, poor fit] |
| Cc1ccc(SCc2cc(=O)[nH]c(N3CCOCC3)n2)cc1 | inconclusive: 14.6 µM [activator, partial curve] |
| Cc1sc(NC(=O)C2C3CCC(C3)C2C(=O)O)c(C(N)=O)c1-c1ccc(C(C)(C)C)cc1 (stereo not given) | inconclusive: 18.4 µM [falling, single point] |
| O=C(Cc1ccccc1F)Nc1ccc(SC(F)F)cc1 | inconclusive: 9.2 µM [activator, partial curve] |
| CN1CC(c2ccc(C#N)cc2)C2(COc3ccccc3C2=O)C12C(=O)Nc1ccccc12 (stereo not given) | inconclusive: 29.1 µM [falling, single point] |
| Cc1nc2ccc(NS(=O)(=O)c3ccc(F)c(C)c3)cc2[nH]1 | active: 8.2 µM |
| COC1=C(Br)C(=O)c2ncccc2C1=O | inconclusive: 29.1 µM [falling, single point] |
| CCn1c(SCC(=O)O)nnc1-c1ccc2[nH]c(C)c(C)c2c1 | inactive |
| Cc1ccsc1C(=O)N1CCc2ccccc2C1 | inactive |
| O=C(O)c1ccc(/C=N\Nc2ccccn2)cc1 | inconclusive: 23.1 µM [activator, single point] |
| COc1ccc(COC(=O)C2=C(C)NC(=O)NC2c2ccc(OC)cc2)cc1 (stereo not given) | inconclusive: 16.4 µM [falling, partial curve, poor fit] |
